{"sequences": {"note": "The chains behind the UniProt entries cited, without tags or fusion partners. Where a name states a change or a piece, a line headed by the entry shows the natural chain unless it says otherwise. A line that says so, or that is headed by a name, gives the form on record, which may keep a tag or linker.", "native mGlu1b receptor of rat brain (rat (endogenous in rat brain)) (P23385, form named)": "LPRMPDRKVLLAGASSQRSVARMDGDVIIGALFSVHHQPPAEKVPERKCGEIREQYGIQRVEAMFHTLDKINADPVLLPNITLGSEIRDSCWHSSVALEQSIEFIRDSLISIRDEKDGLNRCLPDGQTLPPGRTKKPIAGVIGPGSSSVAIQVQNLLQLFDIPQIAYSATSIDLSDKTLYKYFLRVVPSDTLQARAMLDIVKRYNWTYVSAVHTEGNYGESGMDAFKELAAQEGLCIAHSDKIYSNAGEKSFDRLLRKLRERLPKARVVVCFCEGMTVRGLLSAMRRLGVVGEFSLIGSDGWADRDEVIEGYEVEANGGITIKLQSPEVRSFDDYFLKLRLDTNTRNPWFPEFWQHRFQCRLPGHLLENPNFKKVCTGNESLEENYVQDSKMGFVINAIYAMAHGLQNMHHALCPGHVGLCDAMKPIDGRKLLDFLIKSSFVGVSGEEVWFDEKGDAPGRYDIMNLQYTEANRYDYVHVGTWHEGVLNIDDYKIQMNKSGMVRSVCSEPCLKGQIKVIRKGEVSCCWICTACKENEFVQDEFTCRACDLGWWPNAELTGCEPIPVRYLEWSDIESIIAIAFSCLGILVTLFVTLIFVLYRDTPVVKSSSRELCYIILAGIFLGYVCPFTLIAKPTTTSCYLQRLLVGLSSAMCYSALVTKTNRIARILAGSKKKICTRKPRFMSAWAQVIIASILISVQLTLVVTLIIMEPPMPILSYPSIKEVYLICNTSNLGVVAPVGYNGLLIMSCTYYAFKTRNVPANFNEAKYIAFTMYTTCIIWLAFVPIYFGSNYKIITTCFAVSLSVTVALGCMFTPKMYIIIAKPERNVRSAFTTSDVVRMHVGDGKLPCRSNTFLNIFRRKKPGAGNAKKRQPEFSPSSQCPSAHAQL"}, "source": "paper doi:10.1101/2020.11.02.365783", "target": "native mGlu1b receptor of rat brain (rat (endogenous in rat brain)) (UniProt P23385)", "assay": "co-IP", "note": "No constants are given. Whether binding was seen depends on the method and setting. In cells and extracts the contact can be indirect. Some entries that bind do so weakly or less than the wild type.", "data": [{"binder": "native FEZ1 of rat brain (protein, UniProt P97577 1-393) MEAPLVSLDEEFEDIRPCCTEDPEEKPQSLYGTSPHHLEDPSLSELENFSSEIISFKSMEDLVNEFDEKLNVCFRNYNAKTENLAPVKNQLQIQEEEETLRDEEVWDALTDNYIPSLSEDWRDPNIEALNGNSSDTEIHEKEEEDEFIEKSENDSGINEEPLLTADQVIEEIEEMMQNSPDPEEEVEVLEEEDGGEISSQADSVLLQEMQALTQTFNNNWSYEGLRHMSGSELTELLDQVEGAIRDFSEELVHQLARRDELEFEKEVKNSFITVLIEVQNKQKEQRELMKKRRKEKGLSLQSSRIEKGNQMPLKRFSMEGISNILQSGIRQTFGSSGADRQYLNTVIPYEKKSSPPSVEDLQMLTNILFAMKEDNEKVPTLLTDYILKVLCPT", "values": [{"measurement": "binding", "result": "binds"}]}]}
